Reference: PubChem BioAssay AID1347075 (National Center for Advancing Translational Sciences (NCATS), 2019)
In all, about 400,000 compounds went through this assay and about 5,500 (1.4%) were called active. This list was built around the results that the source calls inconclusive (neither active nor inactive); the mix of calls is not that of the screen. The call rests on the fitted dose curve; in most records, active means well fitted cell-killing curve with a large enough effect; inconclusive means small, poorly fitted or top-dose-only effect, or effect the other way; inactive means flat fitted curve, though single readings scatter. Potencies of inconclusive entries are doubtful fits and often do not repeat.

assay: qHTS assay for MDR1-selective chemotherapeutics: Primary screen using the parental adenocarcinoma cell KB-3-1; details: KB-3-1 viability, CellTiter-Glo ATP luminescence, 72 h; activity change, negative = cytotoxic: at 46.1 µM (top of the series); further: nearly all actives have a fitted effect of over 60% in size
Procedure, shortened: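 Cytotoxicity in the drug-sensitive parental line KB-3-1 was scored as loss of CellTiter-Glo luminescence following 72 h incubation with compound. Values come from curve fitting of normalized concentration-response data.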
On the % scale 0 is the no-effect control and ±100 the full control effect; potency means the concentration at half of the fitted maximal effect.

Compound | Potency | activity change, negative = cytotoxic
O=C(CSc1ncnc2nc[nH]c12)N1CCN(c2ccc(Cl)cc2)CC1 | active: 18.4 µM | 
COc1ccc(CN2C[C@H]3CCCN3c3cc(Br)ccc3S2(=O)=O)cc1 | active: 1.84 µM | 
CCOc1ccc(NC(=O)Cn2c(=O)n(CCCC(=O)NC3CCN(Cc4ccccc4)CC3)c(=O)c3ccccc32)cc1 |  | inconclusive: -12.4%
CC(C)N(Cc1nc(-c2ccccc2)no1)C(=O)c1ccc(Cl)cc1 | inconclusive: 20.6 µM [cytotoxic, single point] | 
O=C1N[C@@H](Cc2ccccc2)COC(=O)[C@@H](Cc2ccc(F)cc2)CC/C=C/C[C@H]1CC(=O)N(CCO)Cc1ccccc1 | inconclusive: 29.1 µM [cytotoxic, single point] | 
COc1ccc(NC(=O)C(=O)NCCC2CCCCN2S(=O)(=O)c2cccs2)cc1 (stereo not drawn) | active: 2.59 µM | 
CCCn1nc(C(=O)Nc2nnc(CC)s2)c2ccccc2c1=O | inconclusive: 4.11 µM [rising, partial curve, poor fit] | 
O=C(CCCO)c1ccc2c(c1)OCCO2 | inactive | 
Cc1ccccc1-c1noc(-c2cc(-c3ccc(F)cc3)n[nH]2)n1 | inactive | 
Cn1cc(CN2CCN(CCc3ccccc3)C(CCO)C2)cn1 (stereo not drawn) |  | inconclusive: 36.9%
Cc1ccc(Nc2c(-c3ccccn3)nc3ccc(C)cn23)cc1 | inconclusive: 3.66 µM [cytotoxic, full curve, poor fit] | 
C[C@H]1CCC(=O)N([C@H](COc2ccccc2)Cc2ccccc2)CC1 | inconclusive: 18.4 µM [cytotoxic, partial curve] | 
C=C(CCC(=O)c1ccccc1)C(=O)c1ccccc1 | inconclusive: 29.1 µM [cytotoxic, single point] | 
N#CC(c1ccc(F)cc1)c1ccc(C(=O)c2ccc(F)cc2)cc1 (stereo not drawn) | inconclusive: 29.1 µM [cytotoxic, single point] | 
COc1ccc(C(=O)NC(=S)NNC(=O)c2c(-c3ccccc3)noc2C)cc1OC | inconclusive: 20.6 µM [cytotoxic, single point] | 
CN(C)C=Nc1ccc([N+](=O)[O-])c2ccccc12 | inactive | 
COc1ccc(/C=C/C(=O)Nc2ccc3nc(N4CCCCC4)cc(C)c3c2)cc1OC | inconclusive: 23.1 µM [cytotoxic, single point] | 
COc1cc(NC(=O)c2ccc(-n3cnc4cccnc43)cc2)cc(OC)c1 | inconclusive: 29.1 µM [cytotoxic, single point] | 
CCN1CCN(c2ccc(NC(=O)CCc3c(C)nc4c(-c5ccccc5)c(C)nn4c3C)cc2)CC1 | inconclusive: 18.4 µM [cytotoxic, single point] | 
CC(C)(C)c1cc(/C=N/O)cc(C(C)(C)C)c1O | inconclusive: 29.1 µM [cytotoxic, single point] | 
Cc1ccc2c(c1)CCCN2C(=O)c1cnn2c1NC(=C1CC1)C=C2C(F)F | inconclusive: 11.6 µM [cytotoxic, partial curve, poor fit] | 
CC(C)CC(=O)NCc1ccc2[nH]c3c(c2c1)CCCC3 |  | inconclusive: -0.715%
C/C(N=Nc1nc2ccccc2s1)=N\Nc1ccccc1O | inconclusive: 29.1 µM [cytotoxic, single point] | 

Grouped by structure: those above containing a Cl atom (two)
Compound | Potency | activity change, negative = cytotoxic
O=C(CSc1ncnc2nc[nH]c12)N1CCN(c2ccc(Cl)cc2)CC1 | active: 18.4 µM | 
CC(C)N(Cc1nc(-c2ccccc2)no1)C(=O)c1ccc(Cl)cc1 | inconclusive: 20.6 µM [cytotoxic, single point] | 

The results go on:

Compound | Potency | activity change, negative = cytotoxic
Cc1ccc(CNC(=O)CSc2nc3n[nH]c(C)c3c(=N)n2-c2cccc(C)c2)cc1 | inconclusive: 20.6 µM [cytotoxic, single point] | 
COc1ccc(-c2csc(N(CCCN(C)C)C(=O)c3ccc(C(C)(C)C)cc3)n2)cc1 | inconclusive: 18.4 µM [cytotoxic, single point] | 
CN1c2ccccc2N(C)C1c1ccc2c(c1)OCO2 | active: 5.8 µM | 
O=C(CSc1ccc2ccccc2n1)NC1CC1 |  | inconclusive: -0.673%
COc1cc(OC)cc(-c2cc3nc(C)c(CCC(=O)NC(C)CCc4ccco4)c(C)n3n2)c1 (stereo not drawn) | inactive | 
O=Cc1c[nH]c2ccc(S(=O)(=O)N3CCCCC3)cc12 | inactive | 
CC/C=C1/N=C2C(=O)N(C)C(=O)N=C2N(C)N1 | active: 18.4 µM | 
Cc1c(C(=O)NCc2ccccn2)oc2c(Cl)cccc12 | inactive | 
CCOC(=O)N1CCN(C(=O)c2ccccc2N(Cc2ccccc2)S(=O)(=O)c2ccc(OC)cc2)CC1 | inconclusive: 29.1 µM [cytotoxic, single point] | 
CCOc1ccc2nc(NC(=O)CN3CCC(n4nnc5cc(F)ccc54)CC3)sc2c1 | inconclusive: 18.4 µM [cytotoxic, single point] | 
COc1ccc(SC[C@H](Cc2ccccc2)N2CC[C@@H](C(C)(C)C)CCC2=O)cc1 | inconclusive: 16.4 µM [cytotoxic, partial curve] | 
Cc1oc2cc3oc(=O)cc(C)c3cc2c1C | inactive | 
NC(=S)N/N=C/c1ccccc1OCCSc1ccc(Cl)cc1 | inconclusive: 10.3 µM [cytotoxic, partial curve] | 
COc1ccc(N(CC(=O)NCCC2=CCCCC2)S(=O)(=O)c2ccccc2)cc1 | inconclusive: 10.3 µM [cytotoxic, partial curve, poor fit] | 
COc1ccc(C(=O)COC(=O)CCN2C(=O)C3CC=CCC3C2=O)c(OC)c1 (stereo not drawn) | inconclusive: 3.26 µM [rising, full curve, poor fit] | 
Cn1ncc(N=Cc2c(O)ccc3ccccc23)c1C(=O)Nc1cccc(Cl)c1 | inconclusive: 29.1 µM [cytotoxic, single point] | 
O=C(Nc1ccccc1C(=O)N/N=C/c1ccncc1)c1ccccc1 | inconclusive: 18.4 µM [cytotoxic, single point] | 
CCN1C(=O)CC(c2ccccc2)CC1=O | inconclusive: 29.1 µM [cytotoxic, single point] | 
O=C(O)c1ccc2c(c1)C(=O)N(c1cccc(-c3nc4ccccc4s3)c1)C2=O | inactive | 
Cc1ccc(OCc2cc(C(=O)N(C)CCc3nc4ccccc4[nH]3)no2)cc1C | inactive | 
Cc1ccc2cc(C#N)c(NCCNC(=O)C3CC3)nc2c1C | inconclusive: 23.1 µM [cytotoxic, single point] | 
O=C(N/N=C/c1cccs1)c1n[nH]c2c1CCC2 | active: 5.8 µM | 
O=S(=O)(Nc1ccc(Cl)cn1)c1ccccc1 | inactive | 

Compound | Potency | activity change, negative = cytotoxic
C=CCOC(=O)C1=C(C)NC(C)=C(C(=O)OCC=C)C1c1cccs1 | inconclusive: 25.9 µM [cytotoxic, single point] | 
CCOc1ccc(NC(=O)COC(=O)c2ccccc2OCC(=O)N(C)C)cc1 | inconclusive: 29.1 µM [rising, single point] | 
CCOC(=O)c1cc(-c2ccc(C)cc2)n(CC(=O)NC2CCCCCC2)c1C | inconclusive: 14.6 µM [rising, single point] | 
C[C@H](c1ccccc1)N1C[C@H](COCc2ccccc2)Oc2cc(N3CCC[C@H]3C(N)=O)ccc2S1(=O)=O | inconclusive: 29.1 µM [cytotoxic, single point] | 
COc1ccccc1Cc1c(-c2ccc(OC)c(OC)c2)nc2ccc(Br)cn12 | inconclusive: 29.1 µM [cytotoxic, single point] | 
Cc1cc2nc(-c3cccc(NC(=O)CSc4ccc(Cl)cc4)c3)oc2cc1C | inactive | 
CCOC(=O)c1cnc2ccc(OC)cc2c1Nc1ccc2c(c1)OCCO2 | inconclusive: 29.1 µM [cytotoxic, single point] | 
Cc1ccc(OCC(=O)O/N=C(\N)c2cccc([N+](=O)[O-])c2)cc1C | inconclusive: 0.651 µM [rising, full curve, poor fit] | 
COc1cc(C(=O)NCC(c2cccs2)N2CCOCC2)ccc1OCc1ccc(Cl)cc1 (stereo not drawn) | inconclusive: 16.4 µM [cytotoxic, partial curve, poor fit] | 
COc1ccc(C2c3[nH]c4ccc(OC)cc4c3CCN2C(=O)Nc2ccccc2)cc1 (stereo not drawn) | active: 10.3 µM | 
O=C1CN(C(=O)CNCc2cccc(Cl)c2)c2ccccc2N1 | inconclusive: 8.2 µM [rising, partial curve, poor fit] | 
N/C(=N\OC(=O)Nc1ccccc1)c1ncc([N+](=O)[O-])s1 | inconclusive: 23.1 µM [cytotoxic, single point] | 
CSc1ccccc1NC(=O)CN(C)C(=O)CNc1ccc(C(F)(F)F)cc1[N+](=O)[O-] | inactive | 
Cc1nc(-c2ccc3c(c2)CCC(=O)N3)cs1 | inconclusive: 2.91 µM [cytotoxic, partial curve, poor fit] | 
O=S1(=O)CC(N2CCN(Cc3ccccc3F)CC2)CN1Cc1cn(Cc2cccc(C(F)(F)F)c2)nn1 (stereo not drawn) | inconclusive: 25.9 µM [cytotoxic, partial curve, poor fit] | 
Cc1c(C(=O)NC2CCCc3ccccc32)cccc1[N+](=O)[O-] (stereo not drawn) | inconclusive: 29.1 µM [cytotoxic, single point] | 
CCOc1ccccc1-c1cnc(NC)cn1 | inconclusive: 29.1 µM [cytotoxic, single point] | 
O=C(c1ccc(Cl)c([N+](=O)[O-])c1)N1CCN(Cc2ccc3c(c2)OCO3)CC1 | inactive | 
CCOc1ccc(Br)cc1C(=O)N/N=C/c1ccc([N+](=O)[O-])cc1 |  | inconclusive: 0.136%
CCS(=O)c1scc(-c2ccc(Cl)cc2)c1C#N (stereo not drawn) | inconclusive: 29.1 µM [cytotoxic, single point] | 
CCCCC(=O)Nc1ccccc1C(=O)OCC(=O)c1ccc2c(c1)OCCO2 | inconclusive: 25.9 µM [cytotoxic, single point] | 
O=C(NCc1nnc(SCc2ccccc2)n1-c1ccc(F)cc1)C12CC3CC(CC(C3)C1)C2 | inconclusive: 29.1 µM [cytotoxic, single point] | 
